Over roughly 33,000 sequences, “E-score (-0.5 to 0.5)” has its median near -0.0059; the highest 2% begin near 0.26. The list shows a part of the results.
What follows are sequences tested against T1, Cin5 (UniProt P40917) (assay: PBM E-score (8-mer binding enrichment) (E-score (-0.5 to 0.5)); higher = stronger / more preferred TF binding). Conditions: protein concentration: 100 nM; construct: GST-full length.
T1 sequence: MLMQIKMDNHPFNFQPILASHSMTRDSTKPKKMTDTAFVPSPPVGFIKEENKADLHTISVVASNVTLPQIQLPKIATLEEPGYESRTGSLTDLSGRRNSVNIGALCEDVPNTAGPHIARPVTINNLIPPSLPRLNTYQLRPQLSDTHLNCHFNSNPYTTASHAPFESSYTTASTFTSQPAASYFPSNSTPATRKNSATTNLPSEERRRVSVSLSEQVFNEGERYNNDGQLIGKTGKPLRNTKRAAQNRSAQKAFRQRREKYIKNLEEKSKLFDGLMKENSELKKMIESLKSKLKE
Method: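 Universal 'all 10-mer' protein binding microarrays (Agilent AMADID 015681) probed with GST-tagged S. cerevisiae TFs (full-length or DBD) made by in vitro transcription/translation (PURExpress), about 100-200 nM. Bound TF was detected with fluorescent anti-GST. Each ungapped 8-mer (which stands for itself and its reverse complement) is scored by the PBM enrichment score (E-score), a modified Wilcoxon-Mann-Whitney statistic from -0.5 to +0.5, computed with the Universal PBM Analysis Suite. Scale: above 0.35 generally sequence-specific binding.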

| Sequence | PBM E-score |
| --- | --- |
| GAAAACGA | -0.126 |
| CTCAGAGC | -0.234 |
| GAGCAGAA | -0.0414 |
| CGCGCCTA | 0.159 |
| TGAGTAAA | 0.0976 |
| ACTTGGAT | 0.118 |
| GGATAGGA | 0.115 |
| ACAAGGCG | -0.0359 |
| TCGCGCAA | 0.0798 |
| TTAAATAA | 0.313 |
| CGTGGAGC | -0.0401 |
| CAGGAATG | -0.0362 |
| ATCCGTAA | 0.139 |
| CAACACTA | 0.21 |
| AACACATT | 0.173 |
| AGTTGTCG | -0.0209 |
| ACTATGCT | 0.112 |
| GAAATGGA | 0.00728 |
| AACTCGGG | -0.0842 |
| ACCCGCGA | 0.0354 |
| AGATGTCG | 0.0333 |
| CATGGTCG | -0.0969 |
| GGCAACCC | -0.189 |
| CCTAAGAC | -0.107 |
| AGGCGGCA | -0.224 |

| Sequence | PBM E-score |
| --- | --- |
| AAGACTGC | -0.0995 |
| TAAATAGA | -0.0988 |
| AGCGACTG | -0.189 |
| ACACAGCA | 0.0969 |
| CAGGAGCA | -0.0646 |
| GCGGCCGA | -0.0155 |
| CATCGTCC | -0.0442 |
| ATCACACG | -0.0519 |
| ATTCTGAA | -0.0141 |
| CGGTTTGA | -0.0691 |
| AGGGTTTG | 0.15 |
| CACCGCGC | -0.024 |
| AAGTTTAG | 0.0621 |
| AGGAATCG | 0.00266 |
| CCGAGCGG | -0.118 |
| AGCCTCAG | -0.0929 |
| GTCATTTA | 0.0111 |
| CATGGTGC | -0.146 |
| CGGTTTGC | 0.0401 |
| AAAGATTG | -0.0497 |
| ACTTAGGG | -0.0988 |
| CTGAATCC | -0.0313 |
| GGGCGGCA | -0.214 |
| ATTGGTGA | 0.0424 |
| CGTGGTGC | -0.314 |

6 entries from above, with bars between the fields.
Sequence | PBM E-score
CATGGTCG | -0.0969
GGCAACCC | -0.189
CCTAAGAC | -0.107
AGGCGGCA | -0.224
AAGACTGC | -0.0995
TAAATAGA | -0.0988

Next records follow.

| Sequence | PBM E-score |
| --- | --- |
| GGATGAGA | -0.0453 |
| CCACATGC | 0.136 |
| GAGTTCAA | -0.0274 |
| ATTACACA | 0.241 |
| AAGATCCC | 0.027 |
| AGGCGATC | -0.298 |
| ACCGCGAT | 0.129 |
| GCGCCAAC | 0.0617 |
| ATTAAAAC | 0.185 |
| CGCGGGAG | -0.107 |
| TCTTCTCA | -0.0176 |
| ACCAGAGT | -0.169 |
| GATCCTGC | -0.081 |
| AGAGTCCT | -0.195 |
| TACTGCCA | 0.0854 |
| CCCGAAGC | -0.254 |
| GACCCAGA | 0.0341 |
| CACTTATG | 0.153 |
| AGTGTACC | -0.133 |
| TAGCCCGA | -0.127 |
| CCGATGAA | 0.0748 |
| CTTTTTTC | -0.0397 |
| CTGGTTCC | -0.0469 |
| GCCGGCGC | -0.0705 |
| ACTACGAT | 0.0126 |

| Sequence | PBM E-score |
| --- | --- |
| CAGGAGCC | -0.288 |
| AGTGCGCA | 0.0152 |
| ATGCGCCG | -0.0171 |
| AGGTTGGC | -0.141 |
| GTGGCACA | -0.0897 |
| ACACCTTA | 0.0191 |
| ATGCGCTC | 0.0224 |
| TGATTCCA | -0.0756 |
| AATGCAGG | 0.0785 |
| ACATAAGA | 0.3 |
| ATTGTCGA | 0.0644 |
| CACATGTC | -0.13 |
| ATCACGAC | 0.0257 |
| AACAATAG | 0.0198 |
| CTGATCAG | 0.135 |
| CGTATCAA | 0.00249 |
| GCACTTGA | 0.0303 |
| AGATTCTC | 0.0336 |
| CAATTCCG | 0.107 |
| GACAGACC | -0.0458 |
| AGATGCAA | 0.155 |
| AACAGCAG | -0.00479 |
| AACAGACA | 0.32 |
| ATGGGCGA | -0.0766 |
| ACTATGAA | 0.176 |

In a second layout: entries from further up.
Sequence,PBM E-score
ACAAGGCG,-0.0359
CCGAGCGG,-0.118
CTGAATCC,-0.0313
CACTTATG,0.153
AATGCAGG,0.0785
CAATTCCG,0.107

More entries:

| Sequence | PBM E-score |
| --- | --- |
| CGCAGCTC | -0.138 |
| ATGGCAGG | 0.0882 |
| GTCCGCAA | 0.0417 |
| GGAGTCAC | -0.231 |
| GCCTTTCA | -0.149 |
| AGACAAGG | -0.268 |
| CGGCAGCA | -0.107 |
| TCGTGGCA | 0.106 |
| CGACTTCC | -0.215 |
| GCGCTTAA | 0.049 |
| AAATACTC | 0.0699 |
| GCGTCTAA | -0.131 |
| AGGTCGCG | -0.101 |
| CGAGAGGC | -0.303 |
| ACCTACCA | -0.0831 |
| CGCTAGAA | 0.0266 |
| ATGGCGGG | 0.132 |
| ACTTATCC | 0.0579 |
| AGTTGAGG | -0.0408 |
| GCCTGGAC | -0.275 |
| AAGGTTTC | 0.122 |
| ACCTGCTA | -0.0196 |
| GAGCTTGA | -0.239 |
| CGGAACCC | 0.0794 |
| ATTGAATC | -0.0743 |

| Sequence | PBM E-score |
| --- | --- |
| AGAGAAGG | -0.149 |
| AGACTAAG | -0.0759 |
| ATTTCACG | 0.00529 |
| CCATAACG | 0.0357 |
| GGAAAATA | 0.166 |
| GAGCCTGA | -0.0811 |
| AACGTCTA | -0.0897 |
| GAAGGTTA | -0.0371 |
| GCCACTGA | -0.00298 |
| CCCTTGAG | -0.188 |
| ATAACTTC | 0.113 |
| AAGGAGGA | -0.146 |
| CATTTGTC | 0.0707 |
| GTAGAGGA | -0.239 |
| GCCAGAGA | -0.139 |
| CATGAGGG | -0.105 |
| ACCCTCGG | -0.295 |
| CATACTGA | 0.155 |
| GACATACA | 0.314 |
| ACTAACTG | 0.179 |
| AACGCCGT | -0.148 |
| AATCAGCG | 0.192 |
| GCTGTATA | 0.0522 |
| ACACTGGA | 0.133 |
| AAATTCTC | -0.0624 |

| Sequence | PBM E-score |
| --- | --- |
| GCATGGGA | -0.152 |
| GATCCCAA | -0.0221 |
| CGACCTGA | -0.0157 |
| CCTATTGC | -0.135 |
| AAATACCT | 0.0632 |
| CAGCTAGA | -0.0205 |
| AACGTTTG | -0.0719 |
| CATAGAAC | -0.0417 |
| GTGCTCTA | 0.0613 |
| AGATAACA | 0.115 |
| CCCGCGAA | 0.101 |
| ATCGTAAG | 0.159 |
| CGTGCATC | -0.128 |
| ACTGCCGC | 0.0471 |
| AGTAAAAC | -0.0196 |
| GAAGATCC | -0.178 |
| CTTCCAAA | 0.0243 |
| CGGAGCTC | -0.269 |
| AACAAATG | 0.0424 |
| CCTTTTAC | 0.0651 |
| GGACATAC | 0.124 |
| ACTTAGAT | 0.136 |
| ATGCAGAC | 0.0278 |
| TCAGGCAA | -0.0467 |
| CCCATGAA | -0.0423 |

Rewritten tab-delimited: part of the list above
Sequence	PBM E-score
AAATACTC	0.0699
GCGTCTAA	-0.131

(list continues)

| Sequence | PBM E-score |
| --- | --- |
| AGTGATAA | 0.087 |
| AAAGCAAG | 0.187 |
| AAGATTCG | 0.0694 |
| GCTTAAGA | -0.0654 |
| AGCTAACG | 0.0338 |
| CGTTTGCA | 0.0764 |
| CAATGCTA | 0.0669 |
| CCGCTCGC | -0.0515 |
| AGGCCAAA | -0.0513 |
| CAAGGAAC | -0.0303 |
| CTGTCGAA | -0.0695 |
| GCAGGACA | 0.00773 |
| CCTCGCTA | -0.279 |
| CTGTTACA | 0.00053 |
| ATATAAGA | 0.301 |
| AAATAAGA | 0.161 |
| ACCCGTTA | 0.0299 |
| CTCAAGGA | -0.0336 |
| AAGCGCTG | 0.0792 |
| ACCCATAG | -0.127 |
| TCAGCCGA | -0.0147 |
| AAGACCTC | -0.24 |
| CCATAGCA | -0.0162 |
| ACCTCGTA | 0.128 |
| CGCCACAC | -0.0576 |

| Sequence | PBM E-score |
| --- | --- |
| ATAAAACA | 0.0734 |
| TAGGGGCA | -0.00465 |
| CATACTCA | 0.15 |
| CGGATGAA | 0.208 |
| CTTTAAAC | -0.0657 |
| GCTCTTCA | -0.157 |
| AACCCGGC | -0.103 |
| AGTCGGGA | -0.203 |
| GACTGCGC | -0.114 |
| ATCCATCG | -0.0198 |
| ATGTAGAG | -0.0421 |
| CCCTCTAG | -0.244 |
| CAAAATTG | 0.0697 |
| CACAATGA | 0.125 |
| CAGCAGCA | -0.0492 |
| AAGTCTGG | -0.0526 |
| ATCATATG | 0.169 |
| AGTCTGCA | -0.211 |
| GACTCGCA | -0.00361 |

Source: the supplement of paper PMC3334620
